This note sets out measurements from PubChem BioAssay AID1487 (National Center for Advancing Translational Sciences (NCATS), 2009).

The list shows a part of the results. Further columns of the screen follow, without active or inactive calls. Compounds called inactive in the main read-out are mostly missing here. The note in brackets gives the kind of curve behind each potency; many fits are weak.

This test in a line: qHTS Assay for Modulators of Lamin A Splicing. The note with it: HeLa LMNA splicing GFP/RFP minigene ratio, 48 h. Put shortly:
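S3 HeLa cells stably expressing lamin A-EGFP splicing minigene plus DsRed2, 600 cells/well, 48 h compound exposure at 37C. Laser-scanning cytometry; analysed as GFP (500-530 nm)/RFP (575-640 nm) total intensity ratio; 0.5% DMSO vehicle.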
For orientation: qHTS replaces the single test concentration by a dilution series.

Setting [1] is: measured here: GFP splicing reporter channel.
[2] abbreviates: measured here: RFP viability control channel.

In general, AC50 refers to the concentration giving half of the maximal activity seen. As for `NC(CS)C(=O)O` (centres undefined), the half-maximal activity concentration (AC50) runs as follows: under setting [1], 3.55 µM [falling, partial curve, poor fit]; under setting [2], 2.82 µM [falling, single point].

With `Clc1ccc(OCCCCN2CCc3ccccc3C2)cc1`, the AC50 under setting [1] is 0.891 µM [falling, partial curve]. With `COc1ccc(C(C#N)c2ccc(Cl)nn2)cc1` (centres undefined), under setting [2], the AC50 was 1.26 µM [falling, single point]. Consider `Cc1ccc2cc(CCNC(=O)c3ccc4c(c3)OCO4)c(=O)[nH]c2c1C`, for which the AC50 under setting [1] is 11.2 µM [rising, partial curve, poor fit] and the concentration at half-maximal activity (AC50) under setting [2] is 12.6 µM [rising, partial curve, poor fit]. For `Cn1c(=O)c(C(=O)CCl)c(N)n(CC2CC2)c1=O`, the AC50 under setting [2] is 8.91 µM [rising, partial curve, poor fit].

Take `Cc1ccccc1NC(=S)Nc1ccc(Br)cc1`: under setting [2], the half-maximal activity concentration (AC50) is 10 µM [rising, partial curve].

With `Cc1ccc(-n2nnnc2SCc2nnc(-c3ccccc3Br)o2)c(C)c1`, under setting [2], the concentration at half-maximal activity (AC50) is 17.8 µM [rising, partial curve]. For `CCCCNC(=S)N(C)N=C1CCC(c2ccccc2)CC1` (centres undefined), under setting [2], the AC50 was 35.5 µM [rising, single point]. `Cc1cccc(CSCCNC(=O)Nc2ccccc2)c1`: the half-maximal activity concentration (AC50) under setting [2] is 17.8 µM [rising, single point]. Take `COc1ccc(/C=C/C(=O)CC(O)(c2ccccc2)C(F)(F)F)cc1` (centres undefined): the concentration at half-maximal activity (AC50) is, setting by setting: under setting [1], 35.5 µM [falling, single point]; under setting [2], 22.4 µM [falling, single point]. Turning to `O=C(O)c1cc2c(s1)-c1ccccc1CC2`, the AC50 under setting [2] is 35.5 µM [rising, single point]. Take `COc1ccc(OC)c(C2SCCN2S(=O)(=O)c2cccc(C(F)(F)F)c2)c1` (centres undefined): under setting [2], the concentration at half-maximal activity (AC50) was 35.5 µM [rising, single point]. Consider `CCN1CCN(C(c2cccc(F)c2)c2c(O)cc(C)n(CCOC)c2=O)CC1` (centres undefined), for which the half-maximal activity concentration (AC50) under setting [2] is 5.62 µM [rising, single point]. For the compound `CC(=O)NS(=O)(=O)c1ccc(NC(=S)NC(=O)COc2ccccc2C)cc1`, the AC50 under setting [2] is 10 µM [rising, partial curve]. In the case of `CCOC(=O)c1c(N)n(-c2ccccc2CC)c2nc3ccccc3nc12`, the AC50 reads like this: under setting [1], 15.8 µM [rising, single point]; under setting [2], 31.6 µM [rising, single point]. Consider `CC(C)(CNc1ccc([N+](=O)[O-])cc1C#N)N1CCOCC1`, for which the AC50 under setting [2] is 0.447 µM [rising, full curve, poor fit]. For `CC(C)C(=O)Nc1ccc2nc(SCC(=O)N3CCOCC3)sc2c1`, the AC50 is 0.398 µM [rising, full curve] under setting [1] and 0.562 µM [rising, full curve, poor fit] under setting [2]. Take `CCOCCCNCc1ccc(OCC(=O)N2CCOCC2)c(OC)c1`: the AC50 was 11.2 µM [falling, partial curve, poor fit] under setting [1] and 0.00501 µM [falling, full curve, poor fit] under setting [2]. As to `CC1(OC(=O)c2ccc(Cl)nc2)C(=O)Cc2cc(-c3ccsc3)ncc2C1=O` (centres undefined), the concentration at half-maximal activity (AC50) under setting [1] is 3.98 µM [falling, single point] and the AC50 under setting [2] was 0.112 µM [falling, partial curve, poor fit]. `COc1ccccc1-c1nc(SCC(=O)NCC2CCCO2)c2c(=O)n(C)c(=O)n(C)c2n1` (centres undefined): the AC50 under setting [1] was 0.0282 µM [falling, full curve, poor fit] and the AC50 under setting [2] is 0.158 µM [falling, full curve].

Take `Cc1cc(C(=O)NN=C2CCCCC2)c2ccccc2n1`: under setting [2], the AC50 was 35.5 µM [rising, single point]. On to `CSc1ccc(C2c3[nH]c4ccccc4c3CCN2C(=O)CCc2ccccc2)cc1` (centres undefined), for which the half-maximal activity concentration (AC50) under setting [2] was 2 µM [rising, full curve]. Regarding `O=C(c1ccc(F)cc1)C(CN1CCOCC1)c1ccccc1` (centres undefined), the AC50 under setting [2] is 5.62 µM [rising, single point].

In the case of `CNC(=S)N(CCc1c(C)[nH]c2ccc(Cl)cc12)Cc1cc(OC)c(OC)c(OC)c1`, under setting [2], the half-maximal activity concentration (AC50) is 0.224 µM [falling, partial curve, poor fit].

For `COc1cccc(/C=N/n2c(-c3ccco3)nc3ccccc3c2=O)c1OC`, the concentration at half-maximal activity (AC50) under setting [2] is 0.0501 µM [rising, partial curve, poor fit]. As to `C=CC[n+]1c(-c2ccc(C)cc2)csc1NNC(=O)Nc1ccccc1`, the AC50 is 35.5 µM [falling, single point] under setting [1] and 22.4 µM [falling, single point] under setting [2]. For the compound `COc1ccc(N/N=C(/C(N)=O)C2=NC(C)(C)Cc3ccccc32)cc1`, the AC50 under setting [2] is 12.6 µM [rising, single point]. Turning to `CC1CCCN(c2ccc(C(=O)NCc3ccco3)cc2[N+](=O)[O-])C1` (centres undefined), the AC50 runs as follows: under setting [1], 11.2 µM [rising, single point]; under setting [2], 14.1 µM [rising, single point]. With `O=C(NCC(c1cccs1)N1CCOCC1)c1ccccc1NS(=O)(=O)c1cccc([N+](=O)[O-])c1` (centres undefined), the AC50 under setting [2] was 15.8 µM [rising, partial curve].

As to `CC(C)c1onc(C(=O)NC2CCCC2)c1[N+](=O)[O-]`, under setting [2], the AC50 is 20 µM [rising, single point]. For `COc1ccc(N2C(=O)CSC2c2cccc(OC)c2OC)cc1` (centres undefined), the AC50 was 0.00501 µM [falling, full curve, poor fit] under setting [1] and 31.6 µM [rising, single point] under setting [2]. For `O=C(c1ccccc1)c1coc2c1C(=O)c1ccccc1C2=O`, the concentration at half-maximal activity (AC50) under setting [1] is 25.1 µM [falling, single point]. As to `Nc1cnn(C2CCCO2)c(=O)n1` (centres undefined), the AC50 was 0.0794 µM [rising, full curve] under setting [1] and 0.0562 µM [rising, full curve, poor fit] under setting [2]. `Cc1ccc(C(=O)Nc2ccc(Br)cc2)cc1S(=O)(=O)N1CCOCC1`: under setting [2], the AC50 was 0.02 µM [falling, full curve, poor fit]. As for `O=C(/C=C/c1cccc([N+](=O)[O-])c1)N1CCN(C(=O)c2ccco2)CC1`, under setting [1], the concentration at half-maximal activity (AC50) is 17.8 µM [rising, single point]. On to `C#C[C@]1(O)CC[C@@H]2[C@H]3CCC4=Cc5oncc5C[C@]4(C)[C@@H]3CC[C@@]21C`, for which the half-maximal activity concentration (AC50) was 0.501 µM [falling, full curve, poor fit] under setting [1] and 3.55 µM [falling, partial curve, poor fit] under setting [2].
